# Laboratory results as given in PMC7864077.
# Chains of the proteins cited; added tags and fusions are not shown.
# UniProt P17931: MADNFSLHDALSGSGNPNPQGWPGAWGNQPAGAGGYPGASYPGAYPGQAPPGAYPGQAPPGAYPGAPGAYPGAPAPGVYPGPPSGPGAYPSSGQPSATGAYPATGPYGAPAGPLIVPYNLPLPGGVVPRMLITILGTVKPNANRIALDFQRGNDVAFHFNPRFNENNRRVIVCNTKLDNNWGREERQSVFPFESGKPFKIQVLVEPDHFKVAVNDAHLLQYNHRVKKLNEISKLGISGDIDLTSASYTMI
# These are yes or no findings as the source states them, for the method shown. Some entries that bind do so weakly or less than the wild type.
# B1: CD133 (receptor, UniProt O43490 20-865)
# chain: GGQPSSTDAPKAWNYELPATNYETQDSHKAGPIGILFELVHIFLYVVQPRDFPEDTLRKFLQKAYESKIDYDKPETVILGLKIVYYEAGIILCCVLGLLFIILMPLVGYFFCMCRCCNKCGGEMHQRQKENGPFLRKCFAISLLVICIIISIGIFYGFVANHQVRTRIKRSRKLADSNFKDLRTLLNETPEQIKYILAQYNTTKDKAFTDLNSINSVLGGGILDRLRPNIIPVLDEIKSMATAIKETKEALENMNSTLKSLHQQSTQLSSSLTSVKTSLRSSLNDPLCLVHPSSETCNSIRLSLSQLNSNPELRQLPPVDAELDNVNNVLRTDLDGLVQQGYQSLNDIPDRVQRQTTTVVAGIKRVLNSIGSDIDNVTQRLPIQDILSAFSVYVNNTESYIHRNLPTLEEYDSYWWLGGLVICSLLTLIVIFYYLGLLCGVCGYDRHATPTTRGCVSNTGGVFLMVGVGLSFLFCWILMIIVVLTFVFGANVEKLICEPYTSKELFRVLDTPYLLNEDWEYYLSGKLFNKSKMKLTFEQVYSDCKKNRGTYGTLHLQNSFNISEHLNINEHTGSISSELESLKVNLNIFLLGAAGRKNLQDFAACGIDRMNYDSYLAQTGKSPAGVNLLSFAYDLEAKANSLPPGNLRNSLKRDAQTIKTIHQQRVLPIEQSLSTLYQSVKILQRTGNGLLERVTRILASLDFAQNFITNNTSSVIIEETKKYGRTIIGYFEHYLQWIEFSISEKVASCKPVATALDTAVDVFLCSYIIDPLNLFWFGIGKATVFLLPALIFAVKLAKYYRRMDSEDVYDDVETIPMKNMENGNNGYHKDHVYGIHNPVMTSPSQH
# What was measured:
# GST-Gal-3 [1] = target: GST-Gal-3 (UniProt P17931); experiment: pull-down; as a1, with 0.1 M lactose added to the system for competitive inhibition; both purified
# GST-Gal-3 [2] = target: GST-Gal-3 (UniProt P17931); experiment: pull-down; GST-Gal-3 held on GSH magnetic-agarose beads with purified CD133 in lysis buffer (150 mM NaCl, 100 mM Tris pH 8.0, 0.5% Triton X-100, 1 mM EDTA); Western blotting; both purified
binder,measurement,setting,value
B1,binding,GST-Gal-3 [1],no binding (condition: with 0.1 M lactose)
same,binding,GST-Gal-3 [2],binds
